In patent US20100043097A1:
These are yes or no findings as the source states them, for the method shown. Binding seen in cells or lysates may run through a third protein. Some entries that bind do so weakly or less than the wild type.

Sequences of proteins named here, by UniProt entry; tags and fusion partners are left off. A change or cut given only in a name is not applied to a line headed by its entry. Residues count along the entry.
UniProt O22476, residues 24-1196: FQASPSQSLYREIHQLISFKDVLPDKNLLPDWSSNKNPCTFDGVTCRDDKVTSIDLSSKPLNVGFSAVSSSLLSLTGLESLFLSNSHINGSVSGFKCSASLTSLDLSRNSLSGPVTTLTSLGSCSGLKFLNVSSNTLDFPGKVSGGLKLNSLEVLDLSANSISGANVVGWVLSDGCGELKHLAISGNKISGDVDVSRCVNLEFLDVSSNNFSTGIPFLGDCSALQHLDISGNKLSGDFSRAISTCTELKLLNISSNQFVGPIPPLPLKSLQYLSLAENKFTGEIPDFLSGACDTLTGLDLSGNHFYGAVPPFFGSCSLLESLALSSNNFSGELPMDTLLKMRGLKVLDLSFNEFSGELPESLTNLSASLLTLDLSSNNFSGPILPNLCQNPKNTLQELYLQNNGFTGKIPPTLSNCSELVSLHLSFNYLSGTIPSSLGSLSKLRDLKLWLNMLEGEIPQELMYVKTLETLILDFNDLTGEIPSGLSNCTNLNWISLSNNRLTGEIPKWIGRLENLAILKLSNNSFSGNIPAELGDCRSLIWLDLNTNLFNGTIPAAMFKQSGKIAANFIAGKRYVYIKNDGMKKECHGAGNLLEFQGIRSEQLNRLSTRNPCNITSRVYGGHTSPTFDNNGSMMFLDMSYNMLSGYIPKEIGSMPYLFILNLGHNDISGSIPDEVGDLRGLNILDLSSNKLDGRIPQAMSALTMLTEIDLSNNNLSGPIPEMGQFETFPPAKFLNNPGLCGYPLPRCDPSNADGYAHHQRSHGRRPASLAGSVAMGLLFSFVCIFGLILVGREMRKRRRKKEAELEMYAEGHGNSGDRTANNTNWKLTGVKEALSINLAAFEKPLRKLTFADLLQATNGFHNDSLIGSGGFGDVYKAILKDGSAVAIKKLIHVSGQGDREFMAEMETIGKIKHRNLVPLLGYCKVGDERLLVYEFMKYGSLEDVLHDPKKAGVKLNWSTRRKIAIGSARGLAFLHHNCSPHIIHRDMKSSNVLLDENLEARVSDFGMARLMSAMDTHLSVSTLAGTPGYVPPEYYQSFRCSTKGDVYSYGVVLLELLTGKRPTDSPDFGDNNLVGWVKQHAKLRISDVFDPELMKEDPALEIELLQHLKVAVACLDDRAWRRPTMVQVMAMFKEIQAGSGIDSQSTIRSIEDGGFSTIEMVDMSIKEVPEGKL
UniProt Q944A7: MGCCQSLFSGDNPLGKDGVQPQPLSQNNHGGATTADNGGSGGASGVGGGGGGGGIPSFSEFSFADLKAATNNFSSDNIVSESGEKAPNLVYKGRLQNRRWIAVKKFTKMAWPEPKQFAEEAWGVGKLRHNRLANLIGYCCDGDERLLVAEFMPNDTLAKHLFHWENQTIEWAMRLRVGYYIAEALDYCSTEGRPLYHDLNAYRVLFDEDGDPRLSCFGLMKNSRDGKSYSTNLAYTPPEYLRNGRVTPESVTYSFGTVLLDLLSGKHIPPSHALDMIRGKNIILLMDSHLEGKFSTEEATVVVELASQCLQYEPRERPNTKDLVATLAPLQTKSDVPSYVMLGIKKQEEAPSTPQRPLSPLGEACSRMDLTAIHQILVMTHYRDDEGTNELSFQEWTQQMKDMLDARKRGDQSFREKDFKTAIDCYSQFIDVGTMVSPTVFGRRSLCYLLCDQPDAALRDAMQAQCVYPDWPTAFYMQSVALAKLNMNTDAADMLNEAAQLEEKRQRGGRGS

Target: BRI1-GFP (Arabidopsis thaliana) (UniProt O22476)
Experiment: co-immunoprecipitation from microsomal proteins with anti-BRK1 antibodies, anti-GFP immunoblot (FIG. 9)

binding: binds
Substance: BRK1 (BR-regulated kinase 1, At4g35230) (from UniProt Q944A7 2-512) (enzyme)
